In publication PMC3817200:
Results are given in words; binding and its absence hold for the method and conditions named. Binding seen in cells or lysates may run through a third protein. Some binding calls cover weakened binding; strength is not graded here.

Sequences of proteins named here, by UniProt entry; tags and fusion partners are left off. Residues count along the entry.
UniProt Q99IB8, residues 1977-2442: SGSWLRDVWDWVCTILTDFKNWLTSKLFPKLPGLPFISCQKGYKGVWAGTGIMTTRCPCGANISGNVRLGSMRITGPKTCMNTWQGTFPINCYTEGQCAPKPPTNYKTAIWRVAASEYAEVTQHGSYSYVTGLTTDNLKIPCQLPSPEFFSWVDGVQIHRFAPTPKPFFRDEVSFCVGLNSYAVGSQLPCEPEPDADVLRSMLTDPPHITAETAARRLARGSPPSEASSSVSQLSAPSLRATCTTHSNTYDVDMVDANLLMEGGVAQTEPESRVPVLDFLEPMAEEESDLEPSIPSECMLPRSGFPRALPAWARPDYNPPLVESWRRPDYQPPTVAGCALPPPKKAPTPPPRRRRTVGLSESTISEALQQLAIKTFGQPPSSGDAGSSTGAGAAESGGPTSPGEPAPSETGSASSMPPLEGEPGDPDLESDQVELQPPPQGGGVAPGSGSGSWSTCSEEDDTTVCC

Tests used:
[1] = molecular target: NS5A of genotype 1b in HCV Con1 replicon cells (hepatitis C virus genotype 1b (Con1 replicon)) (UniProt Q9WMX2); assay: co-IP; Con1 replicon cells and Huh7.5.1 cells infected with JFH1 for 72 h, lysed directly; anti-NS5A antibody or control mouse IgG; blot with anti-GPS2 antibody
[2] = molecular target: NS5A of genotype 2a in JFH1 (HCVcc) infected Huh7.5.1 cells (hepatitis C virus genotype 2a (JFH1)) (UniProt Q99IB8); assay: as above

endogenous GPS2 (G protein pathway suppressor 2) (from UniProt Q13227-1 1-327)
binding [1]: binds
binding [2]: binds
